# The list shows a part of the results. Repeats are few or missing, and single values can be far off.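 Imaging used 1,536-well plates; nuclei positive for cleaved PARP by antibody were divided by total DNA-stained nuclei to yield the apoptosis fraction. Doses for screening kept most cells viable, and cell lines differ markedly in resting and induced cleaved-PARP levels.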
# System: WM115
# Test: cleaved PARP positive nuclei fraction relative to DMSO control; melanoma cells; higher = more apoptosis
# Conditions: library dose: low library concentration; 72 h
row,Compound,cleaved PARP positive nuclei fraction
1,"NC1(c2ccc(-c3nc4ccn5c(=O)[nH]nc5c4cc3-c3ccccc3)cc2)CCC1 + C=C(c1ccc(C(=O)O)cc1)c1cc2c(cc1C)C(C)(C)CCC2(C)C [Bexarotene] (first compound 0.4 µM, partner dose 2 µM)",120%
2,"Cn1cnc2c(F)c(Nc3ccc(Br)cc3Cl)c(C(=O)NOCCO)cc21 [selumetinib] + O=C(Nc1cccc(Cl)c1)Nc1ncc(CCNc2ncnc3ccsc23)s1 [SNS314] (first compound 0.015 µM, partner dose 0.0008 µM)",152%
3,"Cn1sc(=O)n(Cc2ccccc2)c1=O + CNC(=O)c1cc(Oc2ccc(NC(=O)Nc3ccc(Cl)c(C(F)(F)F)c3)cc2)ccn1 [sorafenib] (first compound 0.4 µM, partner dose 0.4 µM)",97.6%
4,"NC(=O)c1ccc(N(C(N)=O)c2c(F)cccc2F)nc1-c1ccc(F)cc1F + CC(C)C[C@H](NC(=O)[C@H](Cc1ccccc1)NC(=O)c1cnccn1)B(O)O [Bortezomib] (first compound 0.4 µM, partner dose 0.001 µM)",265%
5,"NC(=O)c1ccc(N(C(N)=O)c2c(F)cccc2F)nc1-c1ccc(F)cc1F + C[C@]1(O)C[C@@H](c2nc(-c3ccc4ccc(-c5ccccc5)nc4c3)c3c(N)nccn32)C1 [OSI906] (first compound 0.4 µM, partner dose 0.4 µM)",140%
6,"CS(=O)(=O)c1ccc(C(=O)Nc2ccc(Cl)c(-c3ccccn3)c2)c(Cl)c1 [vismodegib] + COCC[n+]1c2c(n(Cc3cnccn3)c1C)C(=O)c1ccccc1C2=O [YM155] (first compound 1 µM, partner dose 0.0004 µM)",145%

# Source: the supplement of paper PMC4604168 (melanoma cell lines)
